Laboratory results: PubChem BioAssay AID1224826 (NIAID, 2016)
This is a random part of about 17,000 reagents. In the full data, about 1,110 (6.6%) got an active call. 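Active means lowered or raised reporter signal; replicate intensities are raw and not normalised per plate.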 Further read-outs or replicates are left out here.

Purpose: 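Regulators of Tlr4 signalling leading to Tnf-alpha expression in macrophages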 (primary screen)
Cell system: RAW264.7 G9 macrophages from mouse bearing reporters for p65 (GFP) and the Tnf promoter (mCherry)
Reagent: siRNA pool against mouse genes, 100 nM
Time to read-out: 16 h of LPS stimulation, after 2 days of siRNA transfection
Conditions: bacterial lipopolysaccharide (Salmonella minnesota R595), 10 ng/ml
Detection: 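Nuclear mCherry signal of the Tnf promoter reporter measured by imaging after background removal, scaled to each plate median and turned into robust z-scores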
Scale: Tnf reporter robust z-score: higher = stronger Tnf promoter reporter signal after LPS
Hit rule: 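Called active when robust z-score is at most -1.3, matching the median of the Tlr4 knock-down control, or over 3; control wells and wells with under 50 cells never active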
Meaning of the calls: active = Tnf reporter clearly lowered or raised; inactive = no clear change in Tnf reporter

Ndufs8 (NADH:ubiquinone oxidoreductase core subunit S8) gave Tnf reporter robust z-score 0.11; fewer than 50 cells in well enough cells in well; inactive.
Silencing of Hoxc5 (homeobox C5) came out at: Tnf reporter robust z-score -0.12; fewer than 50 cells in well enough cells in well; inactive.
Elf1 (E74 like ETS transcription factor 1) gave Tnf reporter robust z-score -1.38; fewer than 50 cells in well enough cells in well; active.
With knock-down of Dnajb5 (DnaJ heat shock protein family (Hsp40) member B5), the record shows Tnf reporter robust z-score 0.54; fewer than 50 cells in well enough cells in well; inactive.
Against Ints4 (integrator complex subunit 4), the entry reads fewer than 50 cells in well fewer than 50 cells per well; well left out of calls; inactive.
Depletion of Prl (prolactin) resulted in: Tnf reporter robust z-score -0.35; fewer than 50 cells in well enough cells in well; inactive.
Against Chst1 (carbohydrate sulfotransferase 1), the values are Tnf reporter robust z-score 0.52; fewer than 50 cells in well enough cells in well; inactive.
Kcna10 scored Tnf reporter robust z-score 0.34; fewer than 50 cells in well enough cells in well; inactive.
After knock-down of Clec9a (C-type lectin domain family 9, member a), the screen gave Tnf reporter robust z-score -0.97; fewer than 50 cells in well enough cells in well; inactive.
Silencing of Pex14 (peroxisomal biogenesis factor 14) resulted in: Tnf reporter robust z-score 0.23; fewer than 50 cells in well enough cells in well; inactive.
Against Uggt1 (UDP-glucose glycoprotein glucosyltransferase 1) the deposit lists Tnf reporter robust z-score -1.16; fewer than 50 cells in well enough cells in well; inactive.
After knock-down of Rps6kb2 (ribosomal protein S6 kinase B2), the screen gave Tnf reporter robust z-score 0.2; fewer than 50 cells in well enough cells in well; inactive.
Knock-down of Rfk (riboflavin kinase) resulted in: Tnf reporter robust z-score -1.29; fewer than 50 cells in well enough cells in well; inactive.
For Parp9 (poly (ADP-ribose) polymerase family, member 9) the deposit lists Tnf reporter robust z-score 0.3; fewer than 50 cells in well enough cells in well; inactive.
Knock-down of Acsl4 (acyl-CoA synthetase long-chain family member 4) gave: Tnf reporter robust z-score -0.45; fewer than 50 cells in well enough cells in well; inactive.
For Ogfr (opioid growth factor receptor) the deposit lists Tnf reporter robust z-score 2.02; fewer than 50 cells in well enough cells in well; inactive.
After knock-down of Crtc3 (CREB regulated transcription coactivator 3) the results were Tnf reporter robust z-score -0.08; fewer than 50 cells in well enough cells in well; inactive.
Nkapl (NFKB activating protein-like) gave Tnf reporter robust z-score 0.55; fewer than 50 cells in well enough cells in well; inactive.
After knock-down of Plscr4 (phospholipid scramblase 4), the record shows Tnf reporter robust z-score -0.81; fewer than 50 cells in well enough cells in well; inactive.
Iftap (intraflagellar transport associated protein) showed Tnf reporter robust z-score -0.41; fewer than 50 cells in well enough cells in well; inactive.
Against Evx2 (even-skipped homeobox 2), the entry reads Tnf reporter robust z-score -0.7; fewer than 50 cells in well enough cells in well; inactive.

Targets above whose target name begins with I or i:
Ints4 (integrator complex subunit 4) — fewer than 50 cells in well = fewer than 50 cells per well; well left out of calls; Outcome = inactive
Iftap (intraflagellar transport associated protein) — Tnf reporter robust z-score = -0.41; fewer than 50 cells in well = enough cells in well; Outcome = inactive
